In all, about 1,000 compounds were measured (“thermal shift dTm”: median about 0.19, highest 2% from about 1.7 on). This is one part of the list. Activity calls are given as the source filed them.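 Rule for the calls: active = mean rise in melting temperature of at least 1 degC over same-plate control wells; inactive = below that, where a call was filed.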
What follows are compounds tested against Sulfhydryl oxidase 1 (Homo sapiens) (UniProt O00391) (assay: ligand-induced melting shift of human QSOX1 – biophysical, protein thermal shift, single concentration, QSOX1 inhibitor project, confirmation (AID 1347422;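 note: dTm is compound Tm minus mean Tm of DMSO-only wells on that plate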)). Settings: recombinant hQSOX1 thermal shift, Sypro Orange, at 25 µM, stronger effect = higher value.

By UniProt entry, the sequences of proteins in these tests, tags left out. Where a name states a change or a piece, a line headed by the entry shows the natural chain unless it says otherwise.
UniProt O00391: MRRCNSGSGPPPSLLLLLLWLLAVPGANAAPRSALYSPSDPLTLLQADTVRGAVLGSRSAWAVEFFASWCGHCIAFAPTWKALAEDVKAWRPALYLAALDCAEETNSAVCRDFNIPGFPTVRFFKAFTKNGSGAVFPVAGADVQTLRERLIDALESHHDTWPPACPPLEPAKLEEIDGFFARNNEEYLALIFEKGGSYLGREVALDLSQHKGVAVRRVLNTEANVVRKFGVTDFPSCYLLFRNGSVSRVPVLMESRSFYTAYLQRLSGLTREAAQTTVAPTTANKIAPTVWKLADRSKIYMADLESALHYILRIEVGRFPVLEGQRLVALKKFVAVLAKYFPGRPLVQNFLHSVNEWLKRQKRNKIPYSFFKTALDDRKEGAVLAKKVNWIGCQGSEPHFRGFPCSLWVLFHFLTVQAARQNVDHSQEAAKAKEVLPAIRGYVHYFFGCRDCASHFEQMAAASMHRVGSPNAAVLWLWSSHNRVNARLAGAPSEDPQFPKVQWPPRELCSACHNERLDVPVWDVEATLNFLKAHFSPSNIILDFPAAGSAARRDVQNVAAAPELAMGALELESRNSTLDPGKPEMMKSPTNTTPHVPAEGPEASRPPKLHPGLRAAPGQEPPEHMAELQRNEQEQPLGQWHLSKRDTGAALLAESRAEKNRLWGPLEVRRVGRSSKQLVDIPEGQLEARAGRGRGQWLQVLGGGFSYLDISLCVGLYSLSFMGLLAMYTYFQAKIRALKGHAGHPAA

| Structure (SMILES) | thermal shift dTm |
| --- | --- |
| CCCCCCN1C(=O)NC(=O)/C(=C\c2ccccc2Cl)C1=O | inactive: -0.13 °C |
| O=C(Nc1ccc(Cl)cc1)Nc1nccs1 | active: 1.39 °C |
| COC(=O)c1cn(CCCOc2ccccc2Cl)c2ccccc12 | 0.44 °C |
| CCOC(=O)C1=C(NC(=O)c2ccccc2Cl)c2ccccc2CC12CCCCC2 | 0.17 °C |
